Measured values: paper PMC8990462
Results are given in words; binding and its absence hold for the method and conditions named. In cells and extracts the contact can be indirect. Some binding calls cover weakened binding; strength is not graded here. For part of these data: Sequences can lack the tags named with a protein.

By UniProt entry, the sequences of proteins in these tests, tags left out.
UniProt P54578: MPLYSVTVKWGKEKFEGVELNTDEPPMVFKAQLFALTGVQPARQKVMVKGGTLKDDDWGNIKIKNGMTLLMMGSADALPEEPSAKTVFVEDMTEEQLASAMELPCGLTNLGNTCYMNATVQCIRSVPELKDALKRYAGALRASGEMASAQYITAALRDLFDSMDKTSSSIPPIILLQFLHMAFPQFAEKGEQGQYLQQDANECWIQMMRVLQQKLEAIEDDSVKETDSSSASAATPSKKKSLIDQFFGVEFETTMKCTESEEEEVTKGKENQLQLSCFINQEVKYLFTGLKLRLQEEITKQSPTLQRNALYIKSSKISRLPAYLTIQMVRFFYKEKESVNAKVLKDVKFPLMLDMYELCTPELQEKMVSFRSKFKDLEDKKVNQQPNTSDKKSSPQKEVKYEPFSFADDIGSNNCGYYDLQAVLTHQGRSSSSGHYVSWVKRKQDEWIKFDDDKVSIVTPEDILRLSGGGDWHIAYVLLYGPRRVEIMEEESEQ

T1: Pre-B cell leukemia homeobox 3 (PBX3), endogenous (human (endogenous in MDA-MB-453, T47D and UACC-812)) (UniProt P40426)
T1 sequence: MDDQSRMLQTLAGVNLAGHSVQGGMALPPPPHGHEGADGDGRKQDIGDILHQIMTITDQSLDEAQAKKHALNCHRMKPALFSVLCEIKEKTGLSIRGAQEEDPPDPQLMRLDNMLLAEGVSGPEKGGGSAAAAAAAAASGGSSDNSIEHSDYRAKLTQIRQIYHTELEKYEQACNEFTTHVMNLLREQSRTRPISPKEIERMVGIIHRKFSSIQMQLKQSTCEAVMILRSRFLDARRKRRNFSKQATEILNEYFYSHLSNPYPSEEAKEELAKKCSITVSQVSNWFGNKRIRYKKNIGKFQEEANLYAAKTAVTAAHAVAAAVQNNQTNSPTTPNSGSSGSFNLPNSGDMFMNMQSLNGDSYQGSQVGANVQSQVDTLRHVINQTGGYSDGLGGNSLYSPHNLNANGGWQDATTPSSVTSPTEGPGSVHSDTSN

T2: Flag-tagged Angiotensin II type 1 receptor-associated protein (Flag-ATRAP) (UniProt Q6RW13)
T2 sequence: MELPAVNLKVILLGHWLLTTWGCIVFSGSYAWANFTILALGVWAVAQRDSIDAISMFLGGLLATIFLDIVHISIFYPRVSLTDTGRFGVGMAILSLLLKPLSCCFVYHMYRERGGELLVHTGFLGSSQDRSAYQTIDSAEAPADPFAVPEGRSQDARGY


Columns and labels:
[1] = target: T1, Pre-B cell leukemia homeobox 3 (PBX3), endogenous (human (endogenous in MDA-MB-453, T47D and UACC-812)); assay: co-IP; antibody against endogenous PBX3 cross-linked to magnetic beads, lysate of UACC-812 and T47D cells, overnight at 4 C, western blot of the eluate
[2] = target: Ubiquitin-specific protease 14 (USP14), endogenous (human (endogenous in MDA-MB-453 and UACC-812)) (UniProt P54578); assay: co-IP; anti-USP14 antibody cross-linked to magnetic beads, lysate of UACC-812 cells, overnight at 4 C, western blot of the eluate
[3] = target: T2, Flag-tagged Angiotensin II type 1 receptor-associated protein (Flag-ATRAP); assay: co-IP; anti-Flag antibody cross-linked to magnetic beads (Pierce Crosslinked Magnetic Bead IP/Co-IP Kit), lysate of MDA-MB-453 or T47D cells transfected with Flag-ATRAP, overnight at 4 C, western blot of the eluate

| binding [1] | binding [2] | binding [3] | Binder |
| --- | --- | --- | --- |
| binds | binds | – | Angiotensin II type 1 receptor-associated protein (ATRAP), endogenous (protein, UniProt Q6RW13 1-159) MELPAVNLKVILLGHWLLTTWGCIVFSGSYAWANFTILALGVWAVAQRDSIDAISMFLGGLLATIFLDIVHISIFYPRVSLTDTGRFGVGMAILSLLLKPLSCCFVYHMYRERGGELLVHTGFLGSSQDRSAYQTIDSAEAPADPFAVPEGRSQDARGY |
| – | – | binds | Pre-B cell leukemia homeobox 3 (PBX3), endogenous (protein, UniProt P40426 1-434) MDDQSRMLQTLAGVNLAGHSVQGGMALPPPPHGHEGADGDGRKQDIGDILHQIMTITDQSLDEAQAKKHALNCHRMKPALFSVLCEIKEKTGLSIRGAQEEDPPDPQLMRLDNMLLAEGVSGPEKGGGSAAAAAAAAASGGSSDNSIEHSDYRAKLTQIRQIYHTELEKYEQACNEFTTHVMNLLREQSRTRPISPKEIERMVGIIHRKFSSIQMQLKQSTCEAVMILRSRFLDARRKRRNFSKQATEILNEYFYSHLSNPYPSEEAKEELAKKCSITVSQVSNWFGNKRIRYKKNIGKFQEEANLYAAKTAVTAAHAVAAAVQNNQTNSPTTPNSGSSGSFNLPNSGDMFMNMQSLNGDSYQGSQVGANVQSQVDTLRHVINQTGGYSDGLGGNSLYSPHNLNANGGWQDATTPSSVTSPTEGPGSVHSDTSN |
